In the supplement of paper PMC12889115:
The other results are listed elsewhere or left out. Values are raw readings; no control value is given beside them.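 Primary screen: polymyxin B was added at a level permeabilizing Salmonella outer membranes while sparing inner membranes. DMSO wells, both with and without polymyxin B, established maximum growth. Plate-to-plate variation meant each plate was ranked on its own, and the lowest-OD600 compounds were selected as hits.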

Tested on: Salmonella enterica serovar Typhimurium SL1344
Experiment: bacterial growth OD600 after 18 h with compound and polymyxin B; higher = more bacterial growth (less inhibition)
Details: 50 µM, Mueller-Hinton broth

Row | SMILES | bacterial growth OD600 (polymyxin B 1 µg/mL) | bacterial growth OD600 (polymyxin B 0.75 µg/mL)
1 | O=C(c1ccccc1)C1CCN(C(=O)C2CCC(=O)N(CCN3CCOCC3)C2)CC1 (stereo not given) | 0.926 | 
2 | CN1CCC(N(C)C(=O)c2csc3nc(-c4ccc(C(F)(F)F)cc4)cn23)C1 (stereo not given) | 0.728 | 
3 | CCN(Cc1nccn1C)c1ccc(-c2nc(C(C)C)no2)cn1 |  | 0.759
4 | CC(=O)N1CCC(Oc2ccc(Cl)cc2C(=O)NCc2nccn2C)CC1 | 0.879 | 
5 | CC(C)=CCN1CC[C@@H](N2CCN(CCc3ccccc3)CC2)[C@H](O)C1 |  | 0.873
6 | CC(C)CC(=O)NCC1CC(Cc2ccc(F)cc2)=NO1 (stereo not given) |  | 0.801
7 | Cc1c[nH]c(CN(C)C(=O)CC(c2ccccc2)c2ccccc2C)n1 (stereo not given) | 0.693 | 
8 | OC1CCN([C@@H]2CCN(Cc3cccc4c3sc3ccccc34)C[C@H]2O)CC1 |  | 0.449
9 | c1cc(CN(CCN2CCCCC2)CC2CCCN(C3CCCC3)C2)ccn1 (stereo not given) |  | 0.847
10 | CCn1ccnc1CN(C)C(=O)CC(c1ccccc1)c1cccc(Cl)c1 (stereo not given) | 0.022 | 
11 | Cc1nc(CC(=O)NCC2CCC3(CCN(Cc4cccnc4)CC3)O2)cs1 (stereo not given) |  | 0.862
12 | CCCN(CC1CCCO1)C(=O)c1ccc(-n2cc(NC(=O)c3cccnc3)cn2)cc1 (stereo not given) |  | 0.833
13 | O=C(c1cc(COc2cncc(Cl)c2)on1)N1CCC(Oc2cccnc2)CC1 | 0.921 | 
14 | O=C(NCCc1ccccc1)C1CCN(C2CCN(C(=O)c3ccco3)CC2)CC1 |  | 0.851
15 | C#CCN(CC=C)C(=O)CC1C(=O)NCCN1CCC(C)C (stereo not given) | 0.942 | 
16 | CC1(C(=O)NC2CC(=O)N(Cc3cccc(F)c3)C2)CC1 (stereo not given) | 0.889 | 
17 | COc1cccc(CCC2CCCN(C3CCSCC3)C2)c1 (stereo not given) |  | 0.792
18 | O=C(NCC1CCCO1)C1CCN(C2CCN(C(=O)CCC3CCCCC3)CC2)CC1 (stereo not given) | 0.736 | 
19 | O=C(Nc1ccnn1C1CCN(C(=O)CCc2ccccc2Cl)CC1)C1CC1 | 0.931 | 
20 | O=C(c1ccc(F)cc1Cl)N1CCCC(CO)(Cc2ccc(F)cc2)C1 (stereo not given) | 1.13 | 

Taken from above:
Entry of CCn1ccnc1CN(C)C(=O)CC(c1ccccc1)c1cccc(Cl)c1 (stereo not given) under bacterial growth OD600 (polymyxin B 1 µg/mL): 0.022
Entry of CC(C)=CCN1CC[C@@H](N2CCN(CCc3ccccc3)CC2)[C@H](O)C1 under bacterial growth OD600 (polymyxin B 0.75 µg/mL): 0.873
